{"source": "the supplement of paper PMC8728848", "assay_in_all_cases": "glycan array binding signal (z-score within array); higher = stronger binding", "conditions_in_all_cases": "glycan notation: IUPAC condensed, linker removed", "key": {"[1]": {"target": "GlcNAc(b1-2)Gal(b1-3)GalNAc", "procedure,_shortened": "(§1)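 Glycan array data were curated from 3228 arrays in the Consortium for Functional Glycomics database and kept only where the protein sequence was available. Glycan names were converted to IUPAC-condensed notation, and columns mapping to the same glycan were averaged. The binding signal is a within-array Z-score, averaged across arrays of the same protein sequence at different concentrations or buffers and across linkers. Negative Z-scores can be read as non-binding.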"}, "[2]": {"target": "GlcNAc(b1-2)Man(a1-3)[GlcNAc(b1-2)Man(a1-6)]Man(b1-4)GlcNAc(b1-4)GlcNAc", "procedure,_shortened": "as §1"}, "[3]": {"target": "GlcNAc(b1-2)Man(a1-3)[GlcNAc(b1-2)Man(a1-6)]Man(b1-4)GlcNAc(b1-4)[Fuc(a1-6)]GlcNAc", "procedure,_shortened": "as §1"}, "[4]": {"target": "GlcNAc(b1-2)Man(a1-3)[GlcNAc(b1-4)][GlcNAc(b1-2)Man(a1-6)]Man(b1-4)GlcNAc(b1-4)GlcNAc", "procedure,_shortened": "as §1"}, "[5]": {"target": "GlcNAc(b1-2)Man(a1-3)[GlcNAc(b1-4)][GlcNAc(b1-2)Man(a1-6)]Man(b1-4)GlcNAc(b1-4)[Fuc(a1-6)]GlcNAc", "procedure,_shortened": "as §1"}, "[6]": {"target": "GlcNAc(b1-2)[GlcNAc(b1-4)]Man(a1-3)[GlcNAc(b1-2)Man(a1-6)]Man(b1-4)GlcNAc(b1-4)GlcNAc", "procedure,_shortened": "as §1"}, "[7]": {"target": "GlcNAc(b1-2)[GlcNAc(b1-4)]Man(a1-3)[GlcNAc(b1-4)][GlcNAc(b1-2)Man(a1-6)]Man(b1-4)GlcNAc(b1-4)GlcNAc", "procedure,_shortened": "as §1"}, "[8]": {"target": "GlcNAc(b1-2)[GlcNAc(b1-4)]Man(a1-3)[GlcNAc(b1-4)][GlcNAc(b1-2)[GlcNAc(b1-6)]Man(a1-6)]Man(b1-4)GlcNAc(b1-4)GlcNAc", "procedure,_shortened": "as §1"}, "[9]": {"target": "GlcNAc(b1-2)[GlcNAc(b1-4)]Man(a1-3)[GlcNAc(b1-4)][GlcNAc(b1-2)[GlcNAc(b1-6)]Man(a1-6)]Man(b1-4)GlcNAc(b1-4)[Fuc(a1-6)]GlcNAc", "procedure,_shortened": "as §1"}, "[10]": {"target": "GlcNAc(b1-2)[GlcNAc(b1-6)]Man(a1-6)[GlcNAc(b1-2)Man(a1-3)]Man(b1-4)GlcNAc(b1-4)GlcNAc", "procedure,_shortened": "as §1"}, "[11]": {"target": "GlcNAc(b1-2)[GlcNAc(b1-6)]Man(a1-6)[GlcNAc(b1-2)Man(a1-3)]Man(b1-4)GlcNAc(b1-4)[Fuc(a1-6)]GlcNAc", "procedure,_shortened": "as §1"}, "[12]": {"target": "GlcNAc(b1-2)[GlcNAc(b1-6)]Man(a1-6)[GlcNAc(b1-4)][GlcNAc(b1-2)Man(a1-3)]Man(b1-4)GlcNAc(b1-4)GlcNAc", "procedure,_shortened": "as §1"}, "GlcNAc(b1-3)Fuc": {"target": "GlcNAc(b1-3)Fuc", "procedure,_shortened": "as §1"}, "GlcNAc(b1-3)Gal": {"target": "GlcNAc(b1-3)Gal", "procedure,_shortened": "as §1"}, "[13]": {"target": "GlcNAc(b1-3)Gal(b1-3)GalNAc", "procedure,_shortened": "as §1"}, "GlcNAc(b1-3)Gal(b1-4)Glc": {"target": "GlcNAc(b1-3)Gal(b1-4)Glc", "procedure,_shortened": "as §1"}, "[14]": {"target": "GlcNAc(b1-3)Gal(b1-4)GlcNAc", "procedure,_shortened": "as §1"}, "[15]": {"target": "GlcNAc(b1-3)Gal(b1-4)GlcNAc(b1-2)Man(a1-3)[GlcNAc(b1-3)Gal(b1-4)GlcNAc(b1-2)Man(a1-6)]Man(b1-4)GlcNAc(b1-4)GlcNAc", "procedure,_shortened": "as §1"}, "[16]": {"target": "GlcNAc(b1-3)Gal(b1-4)GlcNAc(b1-2)Man(a1-3)[GlcNAc(b1-3)Gal(b1-4)GlcNAc(b1-2)Man(a1-6)]Man(b1-4)GlcNAc(b1-4)[Fuc(a1-6)]GlcNAc", "procedure,_shortened": "as §1"}, "[17]": {"target": "GlcNAc(b1-3)Gal(b1-4)GlcNAc(b1-2)[GlcNAc(b1-3)Gal(b1-4)GlcNAc(b1-6)]Man(a1-6)[GlcNAc(b1-3)Gal(b1-4)GlcNAc(b1-2)Man(a1-3)]Man(b1-4)GlcNAc(b1-4)GlcNAc", "procedure,_shortened": "as §1"}, "[18]": {"target": "GlcNAc(b1-3)Gal(b1-4)GlcNAc(b1-3)Gal(b1-4)GlcNAc", "procedure,_shortened": "as §1"}, "[19]": {"target": "GlcNAc(b1-3)Gal(b1-4)GlcNAc(b1-3)Gal(b1-4)GlcNAc(b1-2)Man(a1-3)[GlcNAc(b1-3)Gal(b1-4)GlcNAc(b1-3)Gal(b1-4)GlcNAc(b1-2)Man(a1-6)]Man(b1-4)GlcNAc(b1-4)GlcNAc", "procedure,_shortened": "as §1"}, "[20]": {"target": "GlcNAc(b1-3)Gal(b1-4)GlcNAc(b1-3)Gal(b1-4)GlcNAc(b1-2)Man(a1-3)[GlcNAc(b1-3)Gal(b1-4)GlcNAc(b1-3)Gal(b1-4)GlcNAc(b1-2)Man(a1-6)]Man(b1-4)GlcNAc(b1-4)[Fuc(a1-6)]GlcNAc", "procedure,_shortened": "as §1"}, "[21]": {"target": "GlcNAc(b1-3)Gal(b1-4)GlcNAc(b1-3)Gal(b1-4)GlcNAc(b1-2)[GlcNAc(b1-3)Gal(b1-4)GlcNAc(b1-3)Gal(b1-4)GlcNAc(b1-6)]Man(a1-6)[GlcNAc(b1-3)Gal(b1-4)GlcNAc(b1-3)Gal(b1-4)GlcNAc(b1-2)Man(a1-3)]Man(b1-4)GlcNAc(b1-4)[Fuc(a1-6)]GlcNAc", "procedure,_shortened": "as §1"}, "[22]": {"target": "GlcNAc(b1-3)Gal(b1-4)GlcNAc(b1-3)Gal(b1-4)GlcNAc(b1-3)Gal(b1-4)GlcNAc(b1-2)Man(a1-3)[GlcNAc(b1-3)Gal(b1-4)GlcNAc(b1-3)Gal(b1-4)GlcNAc(b1-3)Gal(b1-4)GlcNAc(b1-2)Man(a1-6)]Man(b1-4)GlcNAc(b1-4)GlcNAc", "procedure,_shortened": "as §1"}, "[23]": {"target": "GlcNAc(b1-3)Gal(b1-4)GlcNAc(b1-3)Gal(b1-4)GlcNAc(b1-3)Gal(b1-4)GlcNAc(b1-2)Man(a1-3)[GlcNAc(b1-3)Gal(b1-4)GlcNAc(b1-3)Gal(b1-4)GlcNAc(b1-3)Gal(b1-4)GlcNAc(b1-2)Man(a1-6)]Man(b1-4)GlcNAc(b1-4)[Fuc(a1-6)]GlcNAc", "procedure,_shortened": "as §1"}, "[24]": {"target": "GlcNAc(b1-3)Gal(b1-4)GlcNAc(b1-3)Gal(b1-4)GlcNAc(b1-3)Gal(b1-4)GlcNAc(b1-2)[GlcNAc(b1-3)Gal(b1-4)GlcNAc(b1-3)Gal(b1-4)GlcNAc(b1-3)Gal(b1-4)GlcNAc(b1-6)]Man(a1-6)[GlcNAc(b1-3)Gal(b1-4)GlcNAc(b1-3)Gal(b1-4)GlcNAc(b1-3)Gal(b1-4)GlcNAc(b1-2)Man(a1-3)]Man(b1-4)GlcNAc(b1-4)[Fuc(a1-6)]GlcNAc", "procedure,_shortened": "as §1"}, "[25]": {"target": "GlcNAc(b1-3)Gal(b1-4)GlcNAc(b1-3)Gal(b1-4)GlcNAc(b1-3)Gal(b1-4)GlcNAc(b1-3)Gal(b1-4)GlcNAc(b1-2)Man(a1-3)[GlcNAc(b1-3)Gal(b1-4)GlcNAc(b1-3)Gal(b1-4)GlcNAc(b1-3)Gal(b1-4)GlcNAc(b1-3)Gal(b1-4)GlcNAc(b1-2)Man(a1-6)]Man(b1-4)GlcNAc(b1-4)GlcNAc", "procedure,_shortened": "as §1"}, "[26]": {"target": "GlcNAc(b1-3)Gal(b1-4)GlcNAc(b1-3)Gal(b1-4)GlcNAc(b1-3)Gal(b1-4)GlcNAc(b1-3)Gal(b1-4)GlcNAc(b1-2)Man(a1-3)[GlcNAc(b1-3)Gal(b1-4)GlcNAc(b1-3)Gal(b1-4)GlcNAc(b1-3)Gal(b1-4)GlcNAc(b1-3)Gal(b1-4)GlcNAc(b1-2)Man(a1-6)]Man(b1-4)GlcNAc(b1-4)[Fuc(a1-6)]GlcNAc", "procedure,_shortened": "as §1"}, "[27]": {"target": "GlcNAc(b1-3)Gal(b1-4)GlcNAc(b1-3)Gal(b1-4)GlcNAc(b1-3)Gal(b1-4)GlcNAc(b1-3)Gal(b1-4)GlcNAc(b1-2)[GlcNAc(b1-3)Gal(b1-4)GlcNAc(b1-3)Gal(b1-4)GlcNAc(b1-3)Gal(b1-4)GlcNAc(b1-3)Gal(b1-4)GlcNAc(b1-6)]Man(a1-6)[GlcNAc(b1-3)Gal(b1-4)GlcNAc(b1-3)Gal(b1-4)GlcNAc(b1-3)Gal(b1-4)GlcNAc(b1-3)Gal(b1-4)GlcNAc(b1-2)Man(a1-3)]Man(b1-4)GlcNAc(b1-4)[Fuc(a1-6)]GlcNAc", "procedure,_shortened": "as §1"}}, "note": "Some of the results follow.", "data": [{"binder": "PX14343F-bfa-562-20-562 (Bacteroides fragilis) (protein) CDDFLDSFPQDTVTNENFWKSKEDADKVLVDIYASLLPKDAIFFDEAMSDNAYLVWDWWGGAQQVANGSYTTSGEIPTNRWNGSYEVIRKCWFLLEGIEKIEDISEQDKNKIIGETYFMLAYNYYVLTSYFGDVPLVTKTLAIPESKQLVRTPKAEVVDYAINKLKEAAVMLEGLSQEKGRVTADACRFLIARMYLYNGDYSNVLETVKLLEGKYQLYREGDTPYEDLFSGVAENSCEVILSVVCDKRVGEIYTSHGGNGIMLLKGITGEDPYRGVTPSGSLVDAYPMADGRLIHEAGSSYDPKKPYEGRDPRFYQSIVYPTGQIKYLDVETGTVKERLYDPEDPTTVPEHQYNYSQPSATGYMWNKYIDYSVYAMNSVWDCTNDIIVFRYADVLLMKAEALLQTKGESAKEEVCNLIDQLRDRCSCGRVHRENYNSKDELMELLKNERRIELANEGLRYMDLIRWKDAEKNTIVTGVGLTGQMYGAYMRKDGVGKDDKTVDVDNTPRRYIETRYFNASKGYLFPIPQKERDLNPNLTQNPNW", "values": [{"measurement": "glycan array binding signal (z-score)", "setting": "[1]", "value": 0.44}, {"measurement": "glycan array binding signal (z-score)", "setting": "[2]", "value": -0.414}, {"measurement": "glycan array binding signal (z-score)", "setting": "[3]", "value": 0.561}, {"measurement": "glycan array binding signal (z-score)", "setting": "[4]", "value": -0.464}, {"measurement": "glycan array binding signal (z-score)", "setting": "[5]", "value": -0.489}, {"measurement": "glycan array binding signal (z-score)", "setting": "[6]", "value": -0.748}, {"measurement": "glycan array binding signal (z-score)", "setting": "[7]", "value": 0.199}, {"measurement": "glycan array binding signal (z-score)", "setting": "[8]", "value": -0.524}, {"measurement": "glycan array binding signal (z-score)", "setting": "[9]", "value": -0.381}, {"measurement": "glycan array binding signal (z-score)", "setting": "[10]", "value": -0.204}, {"measurement": "glycan array binding signal (z-score)", "setting": "[11]", "value": 0.283}, {"measurement": "glycan array binding signal (z-score)", "setting": "[12]", "value": 0.886}, {"measurement": "glycan array binding signal (z-score)", "setting": "GlcNAc(b1-3)Fuc", "value": -0.266}, {"measurement": "glycan array binding signal (z-score)", "setting": "GlcNAc(b1-3)Gal", "value": -0.245}, {"measurement": "glycan array binding signal (z-score)", "setting": "[13]", "value": 0.443}, {"measurement": "glycan array binding signal (z-score)", "setting": "GlcNAc(b1-3)Gal(b1-4)Glc", "value": -0.75}, {"measurement": "glycan array binding signal (z-score)", "setting": "[14]", "value": -0.818}, {"measurement": "glycan array binding signal (z-score)", "setting": "[15]", "value": 0.223}, {"measurement": "glycan array binding signal (z-score)", "setting": "[16]", "value": 1.05}, {"measurement": "glycan array binding signal (z-score)", "setting": "[17]", "value": 1.87}, {"measurement": "glycan array binding signal (z-score)", "setting": "[18]", "value": -0.668}, {"measurement": "glycan array binding signal (z-score)", "setting": "[19]", "value": 1.18}, {"measurement": "glycan array binding signal (z-score)", "setting": "[20]", "value": 1.72}, {"measurement": "glycan array binding signal (z-score)", "setting": "[21]", "value": 0.546}, {"measurement": "glycan array binding signal (z-score)", "setting": "[22]", "value": 1.39}, {"measurement": "glycan array binding signal (z-score)", "setting": "[23]", "value": 0.242}, {"measurement": "glycan array binding signal (z-score)", "setting": "[24]", "value": 0.11}, {"measurement": "glycan array binding signal (z-score)", "setting": "[25]", "value": 0.436}, {"measurement": "glycan array binding signal (z-score)", "setting": "[26]", "value": 0.228}, {"measurement": "glycan array binding signal (z-score)", "setting": "[27]", "value": 1.47}]}]}
